From the supplement of paper PMC4604168 (melanoma cell lines)
The list shows a part of the results. Many values rest on one well or one pass, so single values are uncertain.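 Cells were imaged in 1,536-well plates, and nuclei stained with an antibody against cleaved PARP were counted against all DNA-stained nuclei to give the apoptosis fraction. Screening doses were chosen to leave most cells alive, and resting and induced cleaved-PARP levels differ strongly between cell lines.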

Experiments:
Experiment in all cases: cleaved PARP positive nuclei fraction relative to DMSO control; melanoma cells; higher = more apoptosis
Details in all cases: library dose: low library concentration; 72 h
CBRC034 = system: CBRC034 (line from a melanoma biopsy)
COLO792 = system: COLO792
COLO800 = system: COLO800
COLO829 = system: COLO829
G361 = system: G361
IPC-298 = system: IPC-298
IST-MEL1 = system: IST-MEL1
LB2518-MEL = system: LB2518-MEL
LOXIMVI = system: LOXIMVI
MEL-HO = system: MEL-HO

| SMILES | cleaved PARP positive nuclei fraction (CBRC034) [%] | cleaved PARP positive nuclei fraction (COLO792) [%] | cleaved PARP positive nuclei fraction (COLO800) [%] | cleaved PARP positive nuclei fraction (COLO829) [%] | cleaved PARP positive nuclei fraction (G361) [%] | cleaved PARP positive nuclei fraction (IPC-298) [%] | cleaved PARP positive nuclei fraction (IST-MEL1) [%] | cleaved PARP positive nuclei fraction (LB2518-MEL) [%] | cleaved PARP positive nuclei fraction (LOXIMVI) [%] | cleaved PARP positive nuclei fraction (MEL-HO) [%] |
| --- | --- | --- | --- | --- | --- | --- | --- | --- | --- | --- |
| CC(=O)O[C@@]12CO[C@@H]1C[C@H](O)[C@@]1(C)C(=O)[C@H](O)C3=C(C)[C@@H](OC(=O)[C@H](O)[C@@H](NC(=O)OC(C)(C)C)c4ccccc4)C[C@@](O)([C@@H](OC(=O)c4ccccc4)[C@H]21)C3(C)C [Docetaxel] + C[C@@H](Oc1cc(-c2cnn(C3CCNCC3)c2)cnc1N)c1c(Cl)ccc(F)c1Cl [Crizotinib] (first compound 0.0001 µM, partner dose 0.2 µM) | 192 | 242 | 510 | 185 | 361 | 190 | 225 | 166 | 119 | 59.6 |
| CCCCCCCCc1ccc(CCC(N)(CO)CO)cc1 [fingolimod] + Clc1ccc(Nc2nnc(Cc3ccncc3)c3ccccc23)cc1 [vatalanib] (first compound 2 µM, partner dose 2 µM) | 44.7 | 130 | 50.6 | 89.5 | 117 | 43.1 | 87.9 | 142 | 502 | 137 |
| CN(c1ncccc1CNc1nc(Nc2ccc3c(c2)CC(=O)N3)ncc1C(F)(F)F)S(C)(=O)=O + CN1CCN(c2ccc3nc(-c4c(N)c5c(F)cccc5[nH]c4=O)[nH]c3c2)CC1 [Dovitinib] (first compound 0.08 µM, partner dose 0.1 µM) | 84.8 | 133 | 122 | 49.8 | 116 | 87.5 | 102 | 93.3 | 128 | 113 |
| COc1ccc(C2=N[C@@H](c3ccc(Cl)cc3)[C@@H](c3ccc(Cl)cc3)N2C(=O)N2CCNC(=O)C2)c(OC(C)C)c1 [Nutlin-3] + NC1(c2ccc(-c3nc4ccn5c(=O)[nH]nc5c4cc3-c3ccccc3)cc2)CCC1 [MK2206] (first compound 0.1 µM, partner dose 0.4 µM) | 72.6 | 158 | 39.9 | 100 | 78.2 | 81.4 | 66.9 | 60.6 | 61.6 | 81.6 |
| CC1(C)CCC(c2ccc(Cl)cc2)=C(CN2CCN(c3ccc(C(=O)NS(=O)(=O)c4ccc(N[C@H](CCN5CCOCC5)CSc5ccccc5)c(S(=O)(=O)C(F)(F)F)c4)cc3)CC2)C1 + Cc1cc(Nc2cc(N3CCN(C)CC3)nc(/C=C/c3ccccc3)n2)n[nH]1 [ENMD2076] (first compound 0.4 µM, partner dose 0.04 µM) | 585 | 533 | 130 | 70.9 | 236 | 91.7 | 94.8 | 655 | 473 | 50 |
| Cn1cnc2c(F)c(Nc3ccc(Br)cc3Cl)c(C(=O)NOCCO)cc21 [selumetinib] + Cc1nc(Nc2ncc(C(=O)Nc3c(C)cccc3Cl)s2)cc(N2CCN(CCO)CC2)n1 [dasatanib] (first compound 0.015 µM, partner dose 0.004 µM) | 166 | 308 | 154 | 28.2 | 192 | 63.7 | 75.1 | 436 | 237 | 23.5 |
| C[C@@H](N)c1ccc(C(=O)Nc2ccnc3[nH]ccc23)cc1 + O=C(O)c1ccc2c(c1)nc(Nc1cccc(Cl)c1)c1ccncc12 [CX4945] (first compound 0.4 µM, partner dose 0.4 µM) | 326 | 76.7 | 58.9 | 124 | 168 | 30 | 65.3 | 153 | 81.2 | 77.6 |
| Cn1sc(=O)n(Cc2ccccc2)c1=O + Cc1nc(Nc2ncc(C(=O)Nc3c(C)cccc3Cl)s2)cc(N2CCN(CCO)CC2)n1 [dasatanib] (first compound 0.4 µM, partner dose 0.004 µM) | 34.3 | 85.3 | 66.3 | 179 | 37.5 | 128 | 82.6 | 54.6 | 158 | 39.6 |
| COc1ccc(C2=N[C@@H](c3ccc(Cl)cc3)[C@@H](c3ccc(Cl)cc3)N2C(=O)N2CCNC(=O)C2)c(OC(C)C)c1 [Nutlin-3] + COCC[n+]1c2c(n(Cc3cnccn3)c1C)C(=O)c1ccccc1C2=O [YM155] (first compound 0.1 µM, partner dose 0.0004 µM) | 240 | 83.1 | 51.2 | 196 | 134 | 55.5 | 63 | 121 | 49.5 | 82.8 |
| Cn1cnc2c(F)c(Nc3ccc(Br)cc3Cl)c(C(=O)NOCCO)cc21 [selumetinib] + CN1CCN(c2ccc3nc(-c4c(N)c5c(F)cccc5[nH]c4=O)[nH]c3c2)CC1 [Dovitinib] (first compound 0.015 µM, partner dose 0.1 µM) | 123 | 108 | 95.8 | 130 | 111 | 69.2 | 65 | 372 | 77.1 | 492 |
| NC1(c2ccc(-c3nc4ccn5c(=O)[nH]nc5c4cc3-c3ccccc3)cc2)CCC1 + O=C(O)c1ccc2c(c1)nc(Nc1cccc(Cl)c1)c1ccncc12 [CX4945] (first compound 0.4 µM, partner dose 0.4 µM) | 263 | 244 | 77.1 | 126 | 225 | 95.5 | 67 | 83.3 | 139 | 107 |
| CN(c1ncccc1CNc1nc(Nc2ccc3c(c2)CC(=O)N3)ncc1C(F)(F)F)S(C)(=O)=O + CNC(=O)c1cc(Oc2ccc(NC(=O)Nc3ccc(Cl)c(C(F)(F)F)c3)cc2)ccn1 [sorafenib] (first compound 0.08 µM, partner dose 0.4 µM) | 91.4 | 222 | 66.4 | 215 | 155 | 187 | 72.7 | 94.7 | 127 | 66 |
| Cn1sc(=O)n(Cc2ccccc2)c1=O + C[C@]1(O)C[C@@H](c2nc(-c3ccc4ccc(-c5ccccc5)nc4c3)c3c(N)nccn32)C1 [OSI906] (first compound 0.4 µM, partner dose 0.4 µM) | 41.4 | 118 | 185 | 103 | 156 | 58.7 | 32.1 | 56.5 | 75.8 | 88.9 |
| CCN(CC)CCNC(=O)c1c(C)[nH]c(/C=C2\C(=O)Nc3ccc(F)cc32)c1C [sunitinib] + Clc1ccc(Nc2nnc(Cc3ccncc3)c3ccccc23)cc1 [vatalanib] (first compound 0.4 µM, partner dose 2 µM) | 53.7 | 158 | 112 | 97.3 | 110 | 45.2 | 142 | 111 | 120 | 86.3 |
| Cn1sc(=O)n(Cc2ccccc2)c1=O + NC1(c2ccc(-c3nc4ccn5c(=O)[nH]nc5c4cc3-c3ccccc3)cc2)CCC1 [MK2206] (first compound 0.4 µM, partner dose 0.4 µM) | 134 | 141 | 166 | 114 | 93.6 | 46.8 | 121 | 209 | 114 | 49.4 |
| Cn1sc(=O)n(Cc2ccccc2)c1=O + Nc1cccc2c1CN(C1CCC(=O)NC1=O)C2=O [lenalidomide] (first compound 0.4 µM, partner dose 1 µM) | 121 | 244 | 253 | 64.6 | 61.2 | 80.8 | 140 | 35 | 79.4 | 38.7 |
| NC(=O)c1ccc(N(C(N)=O)c2c(F)cccc2F)nc1-c1ccc(F)cc1F + C=C(c1ccc(C(=O)O)cc1)c1cc2c(cc1C)C(C)(C)CCC2(C)C [Bexarotene] (first compound 0.4 µM, partner dose 2 µM) | 58.7 | 95.4 | 97.5 | 51.5 | 127 | 111 | 134 | 100 | 92.9 | 132 |
| Cn1cnc2c(F)c(Nc3ccc(Br)cc3Cl)c(C(=O)NOCCO)cc21 [selumetinib] + O=C(O)[C@@H]1[O][Sb](=[O])([O][Sb]2(=[O])[O][C@H]([C@H](O)CO)[C@H](O)[C@H](C(=O)O)[O]2)[O][C@H]([C@H](O)CO)[C@@H]1O [stibogluconate] (first compound 0.015 µM, partner dose 2 µM) | 43.2 | 94.4 | 140 | 85.1 | 103 | 183 | 99.9 | 333 | 52 | 149 |
| CN(c1ncccc1CNc1nc(Nc2ccc3c(c2)CC(=O)N3)ncc1C(F)(F)F)S(C)(=O)=O + Cc1nc(Nc2ncc(C(=O)Nc3c(C)cccc3Cl)s2)cc(N2CCN(CCO)CC2)n1 [dasatanib] (first compound 0.08 µM, partner dose 0.004 µM) | 279 | 179 | 36.1 | 176 | 88.2 | 44.7 | 134 | 105 | 133 | 121 |
| CC(=O)O[C@@]12CO[C@@H]1C[C@H](O)[C@@]1(C)C(=O)[C@H](O)C3=C(C)[C@@H](OC(=O)[C@H](O)[C@@H](NC(=O)OC(C)(C)C)c4ccccc4)C[C@@](O)([C@@H](OC(=O)c4ccccc4)[C@H]21)C3(C)C [Docetaxel] + COCC[n+]1c2c(n(Cc3cnccn3)c1C)C(=O)c1ccccc1C2=O [YM155] (first compound 0.0001 µM, partner dose 0.0004 µM) | 81.2 | 311 | 382 | 219 | 583 | 329 | 55.3 | 348 | 334 | 63.7 |

Single records, as listed above. Values in the order: cleaved PARP positive nuclei fraction (CBRC034) [%]	cleaved PARP positive nuclei fraction (COLO792) [%]	cleaved PARP positive nuclei fraction (COLO800) [%]	cleaved PARP positive nuclei fraction (COLO829) [%]	cleaved PARP positive nuclei fraction (G361) [%]	cleaved PARP positive nuclei fraction (IPC-298) [%]	cleaved PARP positive nuclei fraction (IST-MEL1) [%]	cleaved PARP positive nuclei fraction (LB2518-MEL) [%]	cleaved PARP positive nuclei fraction (LOXIMVI) [%]	cleaved PARP positive nuclei fraction (MEL-HO) [%]
CC(=O)O[C@@]12CO[C@@H]1C[C@H](O)[C@@]1(C)C(=O)[C@H](O)C3=C(C)[C@@H](OC(=O)[C@H](O)[C@@H](NC(=O)OC(C)(C)C)c4ccccc4)C[C@@](O)([C@@H](OC(=O)c4ccccc4)[C@H]21)C3(C)C [Docetaxel] + COCC[n+]1c2c(n(Cc3cnccn3)c1C)C(=O)c1ccccc1C2=O [YM155] (first compound 0.0001 µM, partner dose 0.0004 µM) is entered as 81.2	311	382	219	583	329	55.3	348	334	63.7
CN(c1ncccc1CNc1nc(Nc2ccc3c(c2)CC(=O)N3)ncc1C(F)(F)F)S(C)(=O)=O + Cc1nc(Nc2ncc(C(=O)Nc3c(C)cccc3Cl)s2)cc(N2CCN(CCO)CC2)n1 [dasatanib] (first compound 0.08 µM, partner dose 0.004 µM) is entered as 279	179	36.1	176	88.2	44.7	134	105	133	121
